Measurements published in US20100098682A1.
These are yes or no findings as the source states them, for the method shown. In cells and extracts the contact can be indirect. Some binding calls cover weakened binding; strength is not graded here. Where a sequence is shown, tags or fusion partners need not be part of it.

How the values were obtained:
[1] = molecular target: Amyloid precursor protein (APP), full length (human) (UniProt P05067); test: αFLAG co-immunoprecipitation from co-transfected HeLa cell lysates (FIG. 1d)
[2] = molecular target: Amyloid precursor protein (APP), full length (human) (UniProt P05067); test: αFLAG co-immunoprecipitation from co-transfected HeLa cell lysates, western blot

B1: FLAG-BRI2 1-131 (amino acids 1 to 131 of BRI2, N-terminal FLAG tag) (protein, not shown: small tags and cut ends)
chain: MVKVTFNSALAQKEAKKDEPKSGEEALIIPPDAVAVDCKDPDDVVPVGQRRAWCWCMCFGLAFMLAGVILGGAYLYKYFALQPDDVYYCGIKYIKDDVILNEPSADAPAALYQTIEENIKIFEEEEVEFIS
B1 was tested, and the binding [1] was “binds” and the binding [2] was “binds”.
